A short description of the experiment: qHTS Assay to Find Inhibitors of Chronic Active B-Cell Receptor Signaling. Conditions: ABC-DLBCL IkBa-CBG/CBR reporter, luminescence ratio (green luciferase fused to IkBa over red control in TMD8 lymphoma cells), 4 h. The essentials:
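Compounds up to 46 uM were incubated four hours with TMD8 cells whose green CBG68 luciferase is fused to IkappaBalpha; red CBR luminescence normalised the signal, and concentration-effect curves were fitted to fusion, red and ratio data.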
For orientation: In qHTS, concentration-response curves come from the screen itself.

The mark [1] stands for this setting: measured here: CBR red luminescence, cell number.
The mark [2] stands for this setting: measured here: IkBa-CBG green luminescence.

The other results are listed elsewhere or left out. Further columns of the screen follow, without active or inactive calls. The list favours compounds with an active or inconclusive main result. The note in brackets gives the kind of curve behind each potency; many fits are weak.

The AC50 is the concentration giving half of the maximal activity seen. On to `Cc1c(Cl)cccc1NC(=O)CSc1nc2c(c(=O)[nH]1)CCCC2`, for which, under setting [1], the AC50 was 0.92 µM [falling, full curve, poor fit].
On to `COc1cccc(Oc2ccc(S(=O)(=O)N3CCCC3)cc2[N+](=O)[O-])c1`, for which, under setting [1], the AC50 was 6.31 µM [falling, partial curve, poor fit].
In the case of `CCC(=O)NCCc1nc2cc(NC(=O)c3cccs3)ccc2n1C`, the half-maximal activity concentration (AC50) under setting [1] is 8.91 µM [falling, partial curve, poor fit].
Consider `CCN(CC(=O)Nc1ccccc1OC)C(=O)c1cc(-c2ccccc2)nn1-c1ccccc1`, for which the concentration at half-maximal activity (AC50) under setting [1] is 0.731 µM [rising, full curve].
For the compound `O=C(COC(=O)/C=C/c1cccc(Br)c1)NC1CCCCC1`, under setting [1], the concentration at half-maximal activity (AC50) was 29.1 µM [rising, single point].
Still for that read-out and setting: under `CCCCC(=O)N(c1ccc(OC)cc1)C1C=CS(=O)(=O)C1` (configuration not stated) stands 1.64 µM [rising, full curve, poor fit]; under `CC1CCN(c2nncc3ccccc23)CC1`, 3.98 µM [rising, partial curve, poor fit]; under `Cc1c(Cl)cccc1NC(=O)CNC(=O)C1CC(=O)N(C2CCCC2)C1` (configuration not stated), 4.11 µM [falling, partial curve].
For the compound `O=C(N/N=C/c1ccc([N+](=O)[O-])o1)c1ccncc1`, the half-maximal activity concentration (AC50) under setting [1] was 17.8 µM [falling, single point].
Regarding `COc1ccc(N2C(=O)CC(Sc3nnc(-c4ccccc4)o3)C2=O)cc1` (configuration not stated), under setting [1], the AC50 was 35.5 µM [falling, single point].
Consider `COC(=O)c1cc(Br)c(=O)n(CC(C)C)c1`, for which the AC50 under setting [1] was 0.092 µM [falling, full curve, poor fit].
As to `CC(C)Cn1c(SC(C)C(=O)Nc2ccc(N3CCOCC3)cc2)nc2ccccc21` (configuration not stated), the AC50 under setting [1] was 18.4 µM [rising, single point].
With `Cc1ccc(Nc2c(F)c(F)c(F)c(F)c2C(=O)O)cc1`, under setting [1], the AC50 was 17.8 µM [rising, partial curve, poor fit].
Consider `CCCCSc1nnc(-c2ccccc2)c2ccccc12`, for which the concentration at half-maximal activity (AC50) under setting [1] is 4.11 µM [rising, full curve].
`CCOc1ccc(Nc2nc(N)c3ccccc3n2)cc1`: under setting [1], the concentration at half-maximal activity (AC50) is 11.2 µM [falling, partial curve].
Take `COc1ccc(OC)c(C(C(=O)NCc2ccco2)N(C(=O)Cn2nnc3ccccc32)C(C)C)c1` (configuration not stated): under setting [1], the concentration at half-maximal activity (AC50) was 0.92 µM [rising, partial curve, poor fit].
Same read-out and setting: in the case of `COc1ccc(Nc2nccc(OC)c2C#N)cc1` it was 10 µM [rising, partial curve].
On to `O=c1c(Cl)c(Cl)cnn1Cc1ccc(F)cc1`, for which the AC50 under setting [1] is 7.94 µM [falling, partial curve, poor fit] and the AC50 under setting [2] was 2.51 µM [rising, full curve, poor fit].
With `CCCc1cc(C(N)=O)c(NC(=O)c2ccoc2C)s1`, the AC50 under setting [1] is 0.82 µM [falling, partial curve, poor fit].
Same read-out and setting: under `Cc1ccc(NS(=O)(=O)c2cc(Br)cc3c2N(C(=O)C2CC2)CC3)cc1C` stands 35.5 µM [falling, single point].
As to `O=C(CSc1nc2ncc(Cl)cc2[nH]1)Nc1ccccc1-c1ccccc1`, the AC50 under setting [1] was 12.6 µM [falling, partial curve, poor fit].
On the same count and under the same terms, under `CC(C)(C)NC(=O)C(=O)N/N=C/c1ccc(F)cc1` stands 14.1 µM [falling, single point]; under `Cc1ccsc1/C=N/Nc1cccc(C(=O)O)c1`, 0.708 µM [falling, full curve].
Consider `COc1ccccc1CNC(=O)c1cc(-c2ccccc2)nn1Cc1cc(C)no1`, for which the AC50 under setting [1] was 20.6 µM [falling, partial curve, poor fit].
As for `CCOC(=O)N1CCC(NC(=O)c2cc3c(-c4ccc(Cl)cc4)nn(C)c3s2)CC1`, under setting [1], the concentration at half-maximal activity (AC50) is 10.3 µM [rising, single point].
Consider `O=c1cnnc(N/N=C/C2CC=CCC2)[nH]1` (configuration not stated), for which the AC50 under setting [2] was 35.5 µM [falling, partial curve, poor fit].
In the case of `Cc1ccc(C(=O)C(NC(=O)c2ccco2)N2CCOCC2)cc1` (configuration not stated), under setting [1], the AC50 was 0.82 µM [falling, partial curve, poor fit].
As for `CC(=O)NNc1cccc(Cl)n1`, under setting [1], the concentration at half-maximal activity (AC50) was 1.12 µM [falling, full curve].
As to `Cn1ccnc1SC(=O)N1c2ccccc2Sc2ccccc21`, the AC50 under setting [1] is 20.6 µM [rising, single point].
In the case of `CC1=NN(c2ccc(Cl)c(C(=O)O)c2)C(=O)/C1=C/c1ccc(-c2ccccc2[N+](=O)[O-])o1`, the AC50 under setting [1] is 22.4 µM [falling, single point].
Regarding `COc1ccc(C)cc1Nc1n[n+](-c2ccccc2)c(-c2ccc(SC)cc2)s1`, the AC50 by setting is: under setting [1], 35.5 µM [falling, single point]; under setting [2], 35.5 µM [falling, partial curve, poor fit].
For `CC(N=C1CC(C)(C)CC(=O)/C1=C(/O)CCCN1C(=O)c2ccccc2C1=O)C(=O)O` (configuration not stated), under setting [1], the AC50 was 11.2 µM [falling, single point].
For the compound `O=C(O)c1ccc(N/N=C/C=C/c2ccc([N+](=O)[O-])o2)cc1`, under setting [1], the AC50 is 0.282 µM [falling, full curve, poor fit].
With `C/C(=N/NC(=O)OC(C)(C)C)c1ccco1`, the AC50 under setting [1] was 0.82 µM [falling, full curve].
As for `O=[N+]([O-])c1ccc(N2CCN(c3ccccc3)CC2)cc1`, the half-maximal activity concentration (AC50) under setting [1] is 2.24 µM [rising, full curve].
In the case of `O=C(c1ccco1)N1CCN(c2nc3ccsc3c(=O)s2)CC1`, the concentration at half-maximal activity (AC50) under setting [1] was 6.51 µM [rising, partial curve, poor fit].
Regarding `CC(C)(C)c1ccccc1NC(=O)Cn1c(=O)cnc2ccccc21`, the AC50 under setting [2] was 4.11 µM [falling, partial curve, poor fit].
Regarding `CC(=O)c1cccc(Nc2cc(C)nc3c(C)cccc23)c1`, the half-maximal activity concentration (AC50) under setting [1] was 35.5 µM [falling, single point].
As to `CN(C)c1ccc(C(=O)/C=C/c2cccnc2)cc1`, the AC50 under setting [1] is 14.1 µM [falling, partial curve, poor fit].
The same measure, in the same setting: in the case of `Cc1ccc(C(=O)CSc2nnc(-c3cccnc3)n2N)cc1` it was 23.1 µM [falling, single point]; in that of `O=C(Nc1ccc2c(c1)OCO2)c1cc(-c2ccccc2Cl)on1`, 0.282 µM [falling, full curve, poor fit]; in that of `COc1ccc2c(c1)CCCC21NC(=O)N(CC(=O)c2cc(F)ccc2F)C1=O` (configuration not stated), 0.651 µM [rising, partial curve, poor fit].
For `Cc1noc(/C=C/c2ccco2)c1S(=O)(=O)N1CCC(C(=O)N2CCc3ccccc32)CC1`, under setting [1], the AC50 is 1.16 µM [rising, full curve, poor fit].
Turning to `COc1ccc(CNC(=O)C(C)OC(=O)C23CC4CC(CC(O)(C4)C2)C3)cc1` (configuration not stated), the half-maximal activity concentration (AC50) under setting [1] was 16.4 µM [rising, partial curve].
`COc1ccccc1N(CC(=O)NC1CCCCC1)S(=O)(=O)c1cccs1`: the concentration at half-maximal activity (AC50) under setting [1] is 31.6 µM [falling, single point].
As to `COc1ccccc1NC(=O)Cn1nnc(C(=O)NCc2ccc3c(c2)OCO3)c1N`, under setting [1], the half-maximal activity concentration (AC50) was 2.51 µM [falling, partial curve, poor fit].
Consider `O=C(NC(=S)Nc1ccccc1Br)c1ccco1`, for which the concentration at half-maximal activity (AC50) under setting [1] was 2.82 µM [rising, partial curve, poor fit].
In the case of `COC(=O)COc1cccc(NC(=O)c2ccccc2)c1`, the concentration at half-maximal activity (AC50) under setting [1] is 35.5 µM [falling, single point].
On the same count and under the same terms, in the case of `CC(=O)c1sccc1NC(=O)CC(C)(C)CC(=O)O` it was 0.112 µM [rising, full curve, poor fit]; in that of `Cc1ccc(Nc2nc(-c3cccs3)cs2)nc1`, 3.55 µM [falling, partial curve]; in that of `COc1ccc(/C=N/Nc2cc(C)nc3ccccc23)cc1`, 20 µM [falling, single point].
Take `COc1ccc(NC(=O)Cc2ccc(C)c(C)c2)cc1Cl`: the AC50 under setting [1] was 17.8 µM [rising, partial curve, poor fit].
With `CCCn1c(SCC(=O)c2cc(C)n(-c3ccc4c(c3)OCO4)c2C)n[nH]c1=O`, the concentration at half-maximal activity (AC50) under setting [1] is 32.6 µM [falling, partial curve, poor fit].
In the case of `CCn1cc(C(=O)Nc2cccc(C)c2)c(=O)c2ccc(C)nc21`, the concentration at half-maximal activity (AC50) under setting [1] was 28.2 µM [rising, single point].
Same read-out and setting: under `CC1(C)CC(=O)C2=C(C1)NC(=O)CC2c1cccc(F)c1` (configuration not stated) stands 35.5 µM [falling, partial curve, poor fit].
With `COc1ccccc1N=Nc1c(C)n[nH]c1C`, the AC50 is, setting by setting: under setting [1], 20 µM [rising, partial curve]; under setting [2], 35.5 µM [falling, single point].
For the compound `CN(CC1CCCO1)S(=O)(=O)c1ccc(C(=O)Nc2ccc([N+](=O)[O-])cc2)cc1` (configuration not stated), the concentration at half-maximal activity (AC50) under setting [1] is 0.112 µM [rising, full curve, poor fit].
Consider `CCOC(=O)C(C(=O)Nc1cccc(C)n1)C1CCCCC1` (configuration not stated), for which, under setting [1], the AC50 is 0.355 µM [rising, full curve, poor fit].
Still for that read-out and setting: in the case of `COc1ccccc1NS(=O)(=O)c1ccc(NN=C2CCCCC2)c([N+](=O)[O-])c1` it was 25.9 µM [falling, partial curve]; in that of `Cc1nc(-c2c(C(=O)NNC(=O)Nc3c(C)cccc3C)noc2C)cs1`, 1.41 µM [rising, full curve].
On to `CCCCOC(=O)c1ccc(NC(=O)C(=O)NCc2ccccn2)cc1`, for which the AC50 under setting [1] was 7.08 µM [rising, partial curve].
Consider `FC(F)(F)Oc1ccccc1-c1nnc(-c2cccc(C(F)(F)F)c2)o1`, for which the AC50 under setting [1] was 5.01 µM [rising, partial curve, poor fit].
For `N#CCCN(C(=O)COC(=O)Cc1c[nH]c2ccccc12)c1ccccc1`, the concentration at half-maximal activity (AC50) under setting [1] was 3.26 µM [rising, partial curve, poor fit].
For the compound `Cn1c(SCC(=O)Nc2ccccc2F)nc2c(c1=O)SCC2`, under setting [1], the concentration at half-maximal activity (AC50) is 15.8 µM [falling, single point].

For the origin of these results see PubChem BioAssay AID493014 (National Center for Advancing Translational Sciences (NCATS), 2011).
